Data as given in publication PMC3314686.
Results are given in words; binding and its absence hold for the method and conditions named. In cells and extracts the contact can be indirect. A result given as binding can be weak or reduced; the word gives no strength. Where a sequence is shown, tags or fusion partners need not be part of it.

B1: GFP-DOR (human DOR/TP53INP2, full length) (protein, UniProt Q8IXH6 1-220)
chain: MFQRLSSLFFSTPSPPEDPDCPRAFVSEEDEVDGWLIIDLPDSYAAPPSPGAAPAPAGRPPPAPSLMDESWFVTPPACFTAEGPGLGPARLQSSPLEDLLIEHPSMSVYVTGSTIVLEPGSPSPLPDAALPDGDLSEGELTPARREPRAARHAAPLPARAALLEKAGQVRRLQRARQRAERHALSAKAVQRQNRARESRPRRSKNQSSFIYQPCQRQFNY
modifications: [35S]methionine label

These binders were tested against GST-LC3C (ΔG) (human) (assay: pull-down; GST fusion proteins purified and immobilized on glutathione-sepharose beads; 35S-labelled in vitro translated GFP-tagged proteins diluted 20x in NET-N buffer (20 mM Tris-HCl pH 8.0, 100 mM NaCl, 1 mM EDTA, 0.5% Nonidet P-40), pre-cleared, incubated at least 2 h at 4°C; five washes; SDS-PAGE and autoradiography; only the target purified).

binding, binds:
FNEKEDDEWILVDFIDTCTG (domain or fragment, UniProt Q96A56 23-42, [35S]methionine label) [GFP-TP53INP1 (aa 23-42), LIR peptide of TP53INP1]
SEEDEVDGWLIIDLPDSYAA (domain or fragment, UniProt Q8IXH6 27-46, [35S]methionine label) [GFP-DOR (aa 27-46), LIR peptide of DOR]
B1
